No constants are given. Whether binding was seen depends on the method and setting. In cells and extracts the contact can be indirect. Binding can be weak; no strength is given.
Molecular target: NF-κB (human (endogenous in BXPC-3 and Patu-8988t))
Test: co-IP; endogenous proteins in RIPA lysates of BXPC-3 and Patu-8988t cells; primary antibody at 4°C overnight, Protein A+G agarose beads, rabbit or mouse IgG as negative control; western blot

- binding: binds
B1: Polypeptide N-acetylgalactosaminyltransferase-6 (GALNT6) (enzyme, UniProt Q8NCL4 1-622)
chain: MRLLRRRHMPLRLAMVGCAFVLFLFLLHRDVSSREEATEKPWLKSLVSRKDHVLDLMLEAMNNLRDSMPKLQIRAPEAQQTLFSINQSCLPGFYTPAELKPFWERPPQDPNAPGADGKAFQKSKWTPLETQEKEEGYKKHCFNAFASDRISLQRSLGPDTRPPECVDQKFRRCPPLATTSVIIVFHNEAWSTLLRTVYSVLHTTPAILLKEIILVDDASTEEHLKEKLEQYVKQLQVVRVVRQEERKGLITARLLGASVAQAEVLTFLDAHCECFHGWLEPLLARIAEDKTVVVSPDIVTIDLNTFEFAKPVQRGRVHSRGNFDWSLTFGWETLPPHEKQRRKDETYPIKSPTFAGGLFSISKSYFEHIGTYDNQMEIWGGENVEMSFRVWQCGGQLEIIPCSVVGHVFRTKSPHTFPKGTSVIARNQVRLAEVWMDSYKKIFYRRNLQAAKMAQEKSFGDISERLQLREQLHCHNFSWYLHNVYPEMFVPDLTPTFYGAIKNLGTNQCLDVGENNRGGKPLIMYSCHGLGGNQYFEYTTQRDLRHNIAKQLCLHVSKGALGLGSCHFTGKNSQVPKDEEWELAQDQLIRNSGSGTCLTSQDKKPAMAPCNPSDPHQLWLFV

From PMC10013470
